# Primary screen of a compound library

Chains of the proteins cited; added tags and fusions are not shown. Residues count along the entry.
UniProt P9WNZ1, whole entry: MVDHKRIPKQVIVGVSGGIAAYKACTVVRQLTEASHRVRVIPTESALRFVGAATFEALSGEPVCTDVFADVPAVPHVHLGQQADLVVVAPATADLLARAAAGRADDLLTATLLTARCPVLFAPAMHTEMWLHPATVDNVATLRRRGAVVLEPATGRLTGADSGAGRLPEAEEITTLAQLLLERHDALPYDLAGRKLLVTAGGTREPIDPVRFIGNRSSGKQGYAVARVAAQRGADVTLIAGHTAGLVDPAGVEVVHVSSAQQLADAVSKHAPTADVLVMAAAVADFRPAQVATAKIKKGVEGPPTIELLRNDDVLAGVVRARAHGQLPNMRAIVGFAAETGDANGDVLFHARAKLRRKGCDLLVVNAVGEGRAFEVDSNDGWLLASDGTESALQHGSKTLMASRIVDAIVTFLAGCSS
UniProt Q8IDJ8, 1-583: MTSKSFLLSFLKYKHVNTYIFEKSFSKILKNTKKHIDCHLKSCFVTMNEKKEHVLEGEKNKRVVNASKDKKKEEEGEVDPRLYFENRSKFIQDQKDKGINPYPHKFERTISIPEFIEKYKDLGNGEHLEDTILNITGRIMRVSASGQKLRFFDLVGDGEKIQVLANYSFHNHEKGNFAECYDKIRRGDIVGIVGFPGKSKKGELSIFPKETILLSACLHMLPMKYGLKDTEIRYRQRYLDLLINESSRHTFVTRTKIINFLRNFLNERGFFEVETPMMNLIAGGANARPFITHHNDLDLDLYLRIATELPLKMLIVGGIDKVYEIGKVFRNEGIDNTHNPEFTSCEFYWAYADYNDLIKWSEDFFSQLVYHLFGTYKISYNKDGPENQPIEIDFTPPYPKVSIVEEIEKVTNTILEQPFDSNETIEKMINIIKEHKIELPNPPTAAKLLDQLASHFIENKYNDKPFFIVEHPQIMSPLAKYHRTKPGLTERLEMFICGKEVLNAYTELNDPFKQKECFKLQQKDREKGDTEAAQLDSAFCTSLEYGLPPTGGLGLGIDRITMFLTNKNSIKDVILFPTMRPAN
UniProt A4I591, 1-473: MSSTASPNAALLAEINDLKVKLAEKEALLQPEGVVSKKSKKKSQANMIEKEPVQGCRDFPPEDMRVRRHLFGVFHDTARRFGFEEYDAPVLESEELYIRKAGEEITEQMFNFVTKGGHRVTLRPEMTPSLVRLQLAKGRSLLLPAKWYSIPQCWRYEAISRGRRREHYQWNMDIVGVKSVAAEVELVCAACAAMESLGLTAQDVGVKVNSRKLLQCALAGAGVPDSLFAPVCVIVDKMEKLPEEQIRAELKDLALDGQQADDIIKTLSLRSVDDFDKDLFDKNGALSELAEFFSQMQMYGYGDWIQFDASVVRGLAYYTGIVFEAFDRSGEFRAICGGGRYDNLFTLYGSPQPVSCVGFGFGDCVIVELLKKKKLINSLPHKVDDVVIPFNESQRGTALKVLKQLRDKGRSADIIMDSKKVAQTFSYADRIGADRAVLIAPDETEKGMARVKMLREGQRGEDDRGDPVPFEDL

Values are the deposited “Percent Effect”, in %. The controls that fix the scale are not given in the record; negative values are as filed. The compounds are a random part of those screened. A dash means the value is not listed here; it may have been measured.

CoaBC: 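Coenzyme A biosynthesis protein CoaBC, Mycobacterium tuberculosis (UniProt P9WNZ1). Enzyme assay of CoaBC with a phosphate dye (Biomol Green) read at 650 nm. Compounds at 30 µM. Higher reads as stronger inhibition, judged from the few compounds that gave an IC50. Most strong results did not repeat in a second test. Size under these conditions: about 67,000 compounds, about 40 of them at 50% or above in at least one test.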
PfKRS1: 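Enzyme assay of the cytosolic lysyl-tRNA synthetase in 384-well plates, read by luminescence. Target: Lysine-tRNA ligase, Plasmodium falciparum 3D7 (UniProt Q8IDJ8). Concentration: 30 µM. Direction is inferred from only a few compounds that gave an IC50; most scored high, so higher reads as stronger inhibition. Of about 69,000 compounds tested this way, about 49 (0.071%) reached 50% or more in at least one test.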
LiHisRS: 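Histidine-tRNA ligase, Leishmania infantum (UniProt A4I591). Enzyme assay of histidyl-tRNA synthetase; the read-out is not stated. Tested at 30 µM. The record gives no direction; compounds that gave an IC50 in retests scored well above the rest, so higher reads as stronger inhibition. The assay is labelled LdHisRS but filed under L. infantum. Of about 69,000 compounds tested this way, about 410 (0.6%) reached 50% or more in at least one test.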

structure,CoaBC,PfKRS1,LiHisRS
CCn1cc(C(=O)N(C)Cc2c(F)cccc2Cl)cn1,-2.723%,3.054%,16%
c1ccc2c(N3CCCC3Cn3cccn3)ncnc2c1 (configuration not stated),1.012%,0.8719%,27.69%
O=S(=O)(CCO)Cc1ccc(OC(F)F)cc1,-,1.193%,20%
c1cnc(N2CCC3(CCN(CC4CCOC4)CC3)CC2)nc1 (configuration not stated),-3.609%,27.07%,2.655%
CCc1ncncc1C(=O)N1CCN(Cc2ccsc2)CC1,-0.1304%,-0.6218%,0.8772%
Cn1ccc(C(=O)N2CCCCC23CC(=O)N(Cc2ccccc2)C3)n1 (configuration not stated),2.29%,7.411%,19.42%
CCN1C(=O)C2(CCOCC2)c2cc(NC(=O)c3ccco3)ccc21,0.9091%,1.685%,31.13%
Cc1cccc(-c2noc([C@@H]3Cc4nc[nH]c4CN3)n2)c1,6.095%,4.366%,19.44%
CN1CCN(Cc2ccccc2Cl)CC12CCC(=O)N(CC1CC1)CC2 (configuration not stated),-2.545%,4.37%,24.19%
CN1CCN(C(=O)CCCc2ccccn2)c2ccc(F)cc21,1.927%,0.2786%,15.52%
CCS(=O)(=O)NCC1Cn2nnc(-c3cccc(C)c3)c2CO1 (configuration not stated),1.232%,8.11%,24%
O=C(CN1CCCCC1Cn1cncn1)Nc1ccncc1 (configuration not stated),1.276%,0.7454%,11.11%
Nc1cc2c(nn1)CCN(C(=O)c1ccccc1Oc1cccnc1)C2,1.375%,5.494%,13.16%
CN(CCc1ccccc1)Cc1cc(C(=O)N2CCSCC2)no1,3.902%,-0.7069%,8%
O=C(NCC(O)(c1ccco1)C1CC1)c1ccccc1F (configuration not stated),-1.527%,2.075%,23.08%
CC(=O)N(Cc1noc(C2CC2)n1)C1CCN(Cc2nccn2C)C1 (configuration not stated),11.47%,0.274%,30.77%
Cc1ccc(N2CCCC(NCc3ccccn3)C2)nn1 (configuration not stated),-1.118%,-4.849%,19.3%
COc1ccc(OC2CCN(C(=O)[C@@H](N)Cc3c[nH]cn3)CC2)cc1,-12.4%,-0.4539%,8.163%
Cc1ccccc1CC(=O)N1CCN(C2CCOC2=O)CC1 (configuration not stated),3.203%,8.405%,19.05%
Cc1cnn(CC2CCCN2Cc2noc(C(C)C)n2)c1 (configuration not stated),4.198%,2.482%,6.087%
O=C1CC2(CCN(S(=O)(=O)c3cccs3)C2)CN1c1cccc(F)c1 (configuration not stated),3.732%,2.115%,9.615%
O=C([C@@H]1CCCO1)N1CCn2c(Cn3cccn3)cnc2C1,3.807%,-4.249%,2.941%
CC(C)NC(=O)c1nc(COc2ccc3c(c2)OCO3)no1,-1.332%,-8.342%,5.435%
Cn1cc(C(=O)Nc2cccc(CCN3CCCC3)c2)ccc1=O,-17.07%,-0.5085%,12.61%
CC(NC(=O)NCCCNS(C)(=O)=O)c1ccncc1 (configuration not stated),0.5222%,8.71%,16.22%
CC1N(c2cnn(C)c2)C(=O)COC12CCN(c1ncccn1)CC2 (configuration not stated),3.273%,3.072%,9.615%
CC(C)C1CN(C(=O)c2nccnc2N)CCS1 (configuration not stated),5%,-0.5472%,16.04%
Cc1ccccc1N1CC2(CCN(S(=O)(=O)c3cccs3)C2)CC1=O (configuration not stated),-3.869%,-7.159%,34.15%
NC(c1ccccc1)c1ccc(OC(F)F)cc1 (configuration not stated),4.167%,2.643%,5.618%
CC(C)N1CCC(c2cc(C(F)(F)F)n3ccnc3n2)CC1,-4.126%,-2.346%,-1.449%
Cc1ccoc1-c1nnc(CN2CCn3c(C)nnc3C2)o1,2.35%,3.28%,12.07%
O=C(Cn1cc(C(=O)O)ccc1=O)Nc1ccc(Cl)cc1F,7.402%,0.828%,11.65%
CCn1c(N)nc2cc(C(=O)N3CC(c4ccccn4)C3)cnc21,9.091%,3.045%,19.18%
COc1ccnc(N2CCN(Cc3nc(-c4ccoc4)no3)CC2)c1,-1.145%,4.716%,19.51%
CCN(CC)C(=O)[C@@H]1C[C@H](NC(=O)c2cccn2C(C)C)CN1C,2.404%,-2.043%,6.25%
CN1CCC2(CCN(S(=O)(=O)c3ccc(-c4cnco4)s3)CC2)C1,1.316%,2.267%,39.34%
CCc1ccccc1NC(=O)c1cnn(C)c1C,13.42%,2.469%,5.747%
Cc1ccc(C(=O)NCc2cc(F)ccc2N2CCCN(C)CC2)o1,-0.8168%,15.16%,13.33%
CC(C)c1ccc(-n2cc(O)c(C(=O)N3CCC(C(N)=O)CC3)n2)cc1,4.8%,4.629%,12.82%
O=C(c1c[nH]c(=O)[nH]1)N1CCc2ccccc21,0.7246%,2.328%,27.27%
COc1ccc(OC)c(C(=O)N2CCC(Nc3cccnc3)CC2)c1,12.44%,3.476%,18.09%
CNc1ccnc(N2CCC(c3nnc(CN4CCCC4)n3C)CC2)n1,-11.54%,-5.705%,10.26%
CC(C)c1nc2c(n1C)CCN(Cc1nc(-c3ccco3)no1)C2,6.378%,1.634%,10.91%

5 of the entries, repeated:

| structure | CoaBC | PfKRS1 | LiHisRS |
|---|---|---|---|
| `COc1ccnc(N2CCN(Cc3nc(-c4ccoc4)no3)CC2)c1` | -1.145% | 4.716% | 19.51% |
| `O=C([C@@H]1CCCO1)N1CCn2c(Cn3cccn3)cnc2C1` | 3.807% | -4.249% | 2.941% |
| `CCN(CC)C(=O)[C@@H]1C[C@H](NC(=O)c2cccn2C(C)C)CN1C` | 2.404% | -2.043% | 6.25% |
| `CN(CCc1ccccc1)Cc1cc(C(=O)N2CCSCC2)no1` | 3.902% | -0.7069% | 8% |
| `CN1CCN(C(=O)CCCc2ccccn2)c2ccc(F)cc21` | 1.927% | 0.2786% | 15.52% |

Data taken from ChEMBL document CHEMBL3988442, “University of Dundee, Small-Polar-MMV Screening Library” (2021).